# Patent US20100196393A1
# The chains behind the UniProt entries cited, without tags or fusion partners. Residues count along the entry.
# UniProt P56480, residues 47-529: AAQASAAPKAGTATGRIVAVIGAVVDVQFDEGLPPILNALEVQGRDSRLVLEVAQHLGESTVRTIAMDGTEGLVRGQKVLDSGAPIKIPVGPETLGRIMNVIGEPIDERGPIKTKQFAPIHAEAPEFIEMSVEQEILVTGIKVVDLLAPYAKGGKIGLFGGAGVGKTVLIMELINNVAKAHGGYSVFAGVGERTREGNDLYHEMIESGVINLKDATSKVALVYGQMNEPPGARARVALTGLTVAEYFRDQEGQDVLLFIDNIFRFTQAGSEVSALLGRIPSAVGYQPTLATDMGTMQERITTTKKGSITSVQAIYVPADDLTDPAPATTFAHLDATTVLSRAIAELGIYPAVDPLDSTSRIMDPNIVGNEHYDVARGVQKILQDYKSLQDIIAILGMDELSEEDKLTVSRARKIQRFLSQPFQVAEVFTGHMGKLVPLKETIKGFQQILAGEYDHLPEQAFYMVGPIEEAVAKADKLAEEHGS
# No constants are given. Whether binding was seen depends on the method and setting. Some binding calls cover weakened binding; strength is not graded here.
# Biological target: beta-F1 ATPase (ATP synthase beta subunit), mouse, on brain microvessels (mouse) (UniProt P56480)
# Assay: displacement of I-PACAP27 from mouse brain microvessels by 50 nM unlabeled peptide
binder,measurement,value
"HSDGIFTDSYSRYRKQMAVKKYLAAVLGKRYKQRVKNK (peptide, UniProt P18509 132-169, looked up) [PACAP38]",binding,binds
